In the supplement of paper PMC10735217 one finds TEAD-luciferase reporter activity data, which are given here for 26 compounds.

Molecules are shown by their SMILES. Where “and” joins values, the source holds several entries; their conditions need not be identical. Equal entries are not always repeated. Structures can show the parent of a compound that is named as a salt. The list shows a part of the results. Repeats in this data set agree poorly, so a single value says little.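 The human kidney-derived cells carry a stably integrated construct of eight TEAD-binding elements driving luciferase, read by luminescence in a drug-repurposing library screen. A compound counts as a hit when its signal is more than five robust Z scores above the plate mean.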

The test system of this experiment is HEK293A TEAD-LUC reporter. Nature of the experiment: TEAD-luciferase reporter activity (YAP activation), robust Z score vs plate; higher = stronger YAP/TEAD activation. To be noted: 24 h. For orientation: Reporter assays use an easily measured gene product as a stand-in for the process of interest.

On to `Cc1ccc(C(=O)Nc2ccc(Oc3cc4cnn(C)c4cc3-c3cn[nH]c3)c(F)c2)c(=O)n1-c1ccc(F)cc1` [Merestinib], for which the TEAD-luciferase reporter activity reads like this: (compound concentration: 200 nM) inactive: -1.37; (compound concentration: 2 uM) inactive: -1.39; (compound concentration: 10 uM) inactive: -2.42.

For the compound `O=c1cc(-c2ccc(O)cc2)oc2cc(O)cc(O)c12` [Apigenin], the TEAD-luciferase reporter activity reads like this: (compound concentration: 200 nM) inactive: -1.39; (compound concentration: 10 uM) inactive: 1.76.

As for `O=c1cc(-c2ccc(O)cc2)oc2cc(O)cc(O)c12`, where the note is “compound concentration: 2 uM”, the TEAD-luciferase reporter activity was inactive: -0.438.

With `CCn1c(/N=N/N(C)C)nc2c1c(=O)n(C)c(=O)n2C` [etheophazine], the TEAD-luciferase reporter activity is inactive: 3.54 (compound concentration: 200 nM), inactive: -0.342 (compound concentration: 2 uM) and inactive: -1.56 (compound concentration: 10 uM).

Regarding `CC1(C)Cc2nc(C3CCCC3)c(C(F)c3ccc(C(F)(F)F)cc3)c(C3CCCCC3)c2[C@@H](O)C1` (stereo partly specified), the TEAD-luciferase reporter activity was inactive: -0.517 (compound concentration: 200 nM), inactive: -0.375 (compound concentration: 2 uM) and inactive: -1.19 (compound concentration: 10 uM).

`Cc1cc(NC(=O)c2c(C)cccc2C)no1` [Soretolide]: the TEAD-luciferase reporter activity is inactive: 0.808 (compound concentration: 200 nM) and inactive: 0.153 (compound concentration: 10 uM).

As to `CC(CO)(CO)NCc1ccc2c3c(cccc13)-c1ccccc1-2`, the TEAD-luciferase reporter activity reads like this: (compound concentration: 200 nM) inactive: 0.217; (compound concentration: 2 uM) inactive: 2.23; (compound concentration: 10 uM) inactive: 0.424.

Take `Cc1cc(OC2CN(Cc3ccc(C#N)cc3)C2)ccc1F`: the TEAD-luciferase reporter activity was inactive: 1.16 (compound concentration: 200 nM) and inactive: -0.46 (compound concentration: 10 uM).

In the case of `O=C(O)CN(CCN(CC(=O)O)Cc1ccccc1O)Cc1ccccc1O`, the TEAD-luciferase reporter activity (compound concentration: 200 nM) was inactive: -0.198 and the TEAD-luciferase reporter activity (compound concentration: 10 uM) is inactive: -0.927.

Consider `CC(C#Cc1ccc(Cc2ccc(F)cc2)s1)N(O)C(N)=O` (stereo unspecified), for which the TEAD-luciferase reporter activity was inactive: 3.37 (compound concentration: 200 nM), inactive: -0.613 (compound concentration: 2 uM) and inactive: 2.81 (compound concentration: 10 uM).

Take `O=C(c1ccc2nonc2c1)N1CCCCC1`: the TEAD-luciferase reporter activity is inactive: -0.567 (compound concentration: 200 nM), inactive: 0.32 (compound concentration: 2 uM) and inactive: -1.72 (compound concentration: 10 uM).

`C=C1C[C@@]23CC[C@H]4[C@@](C)(CCC[C@@]4(C)C(=O)O[C@@H]4O[C@H](CO)[C@@H](O)[C@H](O)[C@H]4O)[C@@H]2CC[C@]1(O[C@@H]1O[C@H](CO)[C@@H](O)[C@H](O)[C@H]1O[C@@H]1O[C@H](CO)[C@@H](O)[C@H](O)[C@H]1O)C3` [Stevioside]: the TEAD-luciferase reporter activity was inactive: -0.0123 (compound concentration: 200 nM), inactive: -0.315 (compound concentration: 2 uM) and inactive: 0.825 (compound concentration: 10 uM).

On to `O=C1Cc2cc(CCN3CCN(c4nsc5ccccc45)CC3)c(Cl)cc2N1` [ziprasidone], for which the TEAD-luciferase reporter activity (compound concentration: 2 uM) is inactive: -1.18.

Take `O=C1Cc2cc(CCN3CCN(c4nsc5ccccc45)CC3)c(Cl)cc2N1` [Ziprasidone HCl]: the TEAD-luciferase reporter activity (compound concentration: 200 nM) is inactive: -1.4 and the TEAD-luciferase reporter activity (compound concentration: 10 uM) was inactive: -1.01.

For `COC(=O)[C@H]1Cc2cc(C(=O)CNS(=O)(=O)c3ccc(Cl)cc3)ccc2O1`, the TEAD-luciferase reporter activity (compound concentration: 200 nM) is inactive: -0.917, the TEAD-luciferase reporter activity (compound concentration: 2 uM) was inactive: -0.4 and the TEAD-luciferase reporter activity (compound concentration: 10 uM) is inactive: -1.29.

For the compound `O=C(O)c1c(O)c(Cc2ccc(Cl)cc2)nc2c3c(ccc12)CCCC3`, the TEAD-luciferase reporter activity is inactive: 1.66 (compound concentration: 200 nM), inactive: -0.956 (compound concentration: 2 uM) and inactive: 0.216 (compound concentration: 10 uM).

Turning to `O=C(NCC1CCCCN1)c1cc(OCC(F)(F)F)ccc1OCC(F)(F)F` (stereo unspecified) [flecainide acetate], the TEAD-luciferase reporter activity is inactive: -0.416 (compound concentration: 200 nM), inactive: -0.648 (compound concentration: 2 uM) and inactive: -0.562 (compound concentration: 10 uM).

As to `CCCN1CC(NS(=O)(=O)N(CC)CC)CC2Cc3c(O)cccc3CC21` (stereo unspecified) [Quinagolide hydrochloride], the TEAD-luciferase reporter activity was inactive: -1.1 (compound concentration: 200 nM), inactive: -0.905 (compound concentration: 2 uM) and inactive: 0.153 (compound concentration: 10 uM).

For the compound `C[C@@H](O)[C@H]1C(=O)N2C(C(=O)O)=C(S[C@H]3CC[S@@](=O)C3)S[C@H]12`, the TEAD-luciferase reporter activity was inactive: 3.75 (compound concentration: 200 nM), inactive: -1.22 (compound concentration: 2 uM) and inactive: 0.715 (compound concentration: 10 uM).

Consider `CCC(=O)c1cc(C(C)(C)C)cc(CN)c1O`, for which the TEAD-luciferase reporter activity (compound concentration: 200 nM) was inactive: -0.408; the TEAD-luciferase reporter activity (compound concentration: 2 uM) is inactive: 0.94 and inactive: -0.619; the TEAD-luciferase reporter activity (compound concentration: 10 uM) is inactive: -0.0876.

Regarding `CC1CCC(C(=O)CCC(=O)O)CC1` (stereo unspecified), the TEAD-luciferase reporter activity by setting is: (compound concentration: 200 nM) inactive: -1.07; (compound concentration: 2 uM) inactive: -0.941; (compound concentration: 10 uM) inactive: -0.717.

Take `CC[C@H](C)CCN(C(=O)CNC(=O)Nc1cccc(CC(=O)O)c1)c1ccccc1OCC(=O)N(C)c1ccccc1`: the TEAD-luciferase reporter activity is, setting by setting: (compound concentration: 200 nM) inactive: -1.55; (compound concentration: 2 uM) inactive: -0.288; (compound concentration: 10 uM) inactive: -0.00538.

As for `CN(C)c1ccc2c(c1)Sc1cc(N(C)C)ccc1N2` [Leuco methylthioninium salt], the TEAD-luciferase reporter activity (compound concentration: 200 nM) was inactive: -1.02, the TEAD-luciferase reporter activity (compound concentration: 2 uM) is inactive: 1.51 and the TEAD-luciferase reporter activity (compound concentration: 10 uM) is inactive: 3.48.

Regarding `CCc1c(C)[nH]c2c1C(=O)C(CN1CCOCC1)CC2` (stereo unspecified) [molindone], the TEAD-luciferase reporter activity (compound concentration: 2 uM) was inactive: -0.467.

In the case of `CCc1c(C)[nH]c2c1C(=O)C(CN1CCOCC1)CC2` (stereo unspecified) [Moban], the TEAD-luciferase reporter activity is inactive: 0.299 (compound concentration: 200 nM) and inactive: 0.518 (compound concentration: 10 uM).

For the compound `Cn1/c(=N\C#N)n(-c2ccc(C(C)(C)C#N)nc2)c2c3cc(-c4cnc(N)c(C(F)(F)F)c4)ccc3ncc21` [Panulisib], the TEAD-luciferase reporter activity is, setting by setting: (compound concentration: 200 nM) inactive: -2.42; (compound concentration: 2 uM) inactive: -3.26; (compound concentration: 10 uM) inactive: -2.74.
